For part of these data: Where cells or extracts were used, other partners may take part. Protein sequences can lack the tags named with them.
Assays:
[1] = system: T1, Vibhar+Ant transposase (A) (Vibrio harveyi); assay: activity assay; details: bead-bound complex fragments DNA, Mn2+, 45 C, protein in a lysate after overexpression
T1 sequence: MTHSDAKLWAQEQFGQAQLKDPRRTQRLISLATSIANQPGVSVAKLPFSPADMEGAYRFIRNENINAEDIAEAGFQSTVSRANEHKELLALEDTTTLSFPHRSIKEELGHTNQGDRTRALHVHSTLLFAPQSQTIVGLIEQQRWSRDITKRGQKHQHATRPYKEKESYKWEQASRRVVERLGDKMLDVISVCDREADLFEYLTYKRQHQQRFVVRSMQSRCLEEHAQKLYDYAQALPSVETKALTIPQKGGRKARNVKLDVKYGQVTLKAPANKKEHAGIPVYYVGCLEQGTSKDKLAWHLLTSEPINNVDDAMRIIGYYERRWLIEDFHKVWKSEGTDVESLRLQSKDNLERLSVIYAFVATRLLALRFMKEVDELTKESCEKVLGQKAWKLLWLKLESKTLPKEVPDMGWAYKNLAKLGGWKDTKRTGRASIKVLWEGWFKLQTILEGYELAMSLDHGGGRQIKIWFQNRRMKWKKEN

[2] = system: T2, Vibhar+Lef transposase (L) (Vibrio harveyi); assay: activity assay; details: bead-bound complex fragments DNA, Mn2+, 45 C, protein in a lysate after overexpression, protein details: C-terminal extension GGGKKKRKRER (included in ref)
T2 sequence: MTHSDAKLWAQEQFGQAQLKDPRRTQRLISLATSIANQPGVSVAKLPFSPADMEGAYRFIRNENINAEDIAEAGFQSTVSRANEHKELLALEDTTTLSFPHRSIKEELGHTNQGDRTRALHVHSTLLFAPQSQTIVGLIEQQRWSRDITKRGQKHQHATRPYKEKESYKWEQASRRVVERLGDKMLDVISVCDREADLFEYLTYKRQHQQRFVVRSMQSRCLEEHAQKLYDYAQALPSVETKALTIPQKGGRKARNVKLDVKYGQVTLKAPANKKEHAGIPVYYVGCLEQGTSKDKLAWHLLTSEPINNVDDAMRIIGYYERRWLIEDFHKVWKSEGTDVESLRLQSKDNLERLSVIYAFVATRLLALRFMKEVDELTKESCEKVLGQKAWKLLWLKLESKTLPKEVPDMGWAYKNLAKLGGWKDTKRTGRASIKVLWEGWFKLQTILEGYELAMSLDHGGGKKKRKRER

[3] = system: T3, Vibhar+Sox transposase (S) (Vibrio harveyi); assay: activity assay; details: bead-bound complex fragments DNA, Mn2+, 45 C, protein in a lysate after overexpression
T3 sequence: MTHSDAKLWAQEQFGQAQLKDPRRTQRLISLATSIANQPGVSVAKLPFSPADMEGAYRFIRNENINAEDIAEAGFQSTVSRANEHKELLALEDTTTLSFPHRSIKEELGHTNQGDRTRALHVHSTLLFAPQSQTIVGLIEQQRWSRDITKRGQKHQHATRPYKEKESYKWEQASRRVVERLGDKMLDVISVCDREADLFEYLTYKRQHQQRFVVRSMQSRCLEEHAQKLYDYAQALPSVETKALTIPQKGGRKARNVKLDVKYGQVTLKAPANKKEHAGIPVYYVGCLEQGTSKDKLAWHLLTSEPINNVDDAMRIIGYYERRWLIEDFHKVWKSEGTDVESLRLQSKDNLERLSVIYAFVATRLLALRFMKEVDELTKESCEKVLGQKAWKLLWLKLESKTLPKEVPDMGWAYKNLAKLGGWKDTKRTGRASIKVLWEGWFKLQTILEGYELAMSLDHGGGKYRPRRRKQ

[4] = system: T4, Photobacterium profundum SS9 transposase (5B) (Photobacterium profundum); assay: activity assay; details: bead-bound complex fragments DNA, less GC bias, Mn2+, 45 C, protein in a lysate after overexpression
T4 sequence: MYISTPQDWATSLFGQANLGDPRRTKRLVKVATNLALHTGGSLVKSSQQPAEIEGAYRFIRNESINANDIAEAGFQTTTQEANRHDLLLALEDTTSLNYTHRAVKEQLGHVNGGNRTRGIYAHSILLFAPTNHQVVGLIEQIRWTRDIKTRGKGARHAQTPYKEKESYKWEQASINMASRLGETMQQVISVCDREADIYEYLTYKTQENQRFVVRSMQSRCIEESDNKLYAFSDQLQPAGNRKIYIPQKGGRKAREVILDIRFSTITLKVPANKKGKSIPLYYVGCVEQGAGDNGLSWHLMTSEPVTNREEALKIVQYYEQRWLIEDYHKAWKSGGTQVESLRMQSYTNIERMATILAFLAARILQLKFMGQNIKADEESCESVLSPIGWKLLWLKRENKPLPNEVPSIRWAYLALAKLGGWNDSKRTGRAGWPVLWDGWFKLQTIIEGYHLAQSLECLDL

[5] = system: T5, Vibhar transposase (V6) (Vibrio harveyi); assay: activity assay; details: bead-bound complex tagmentation with PCR readout; Mn2+, 45 C; protein in a lysate after overexpression
T5 sequence: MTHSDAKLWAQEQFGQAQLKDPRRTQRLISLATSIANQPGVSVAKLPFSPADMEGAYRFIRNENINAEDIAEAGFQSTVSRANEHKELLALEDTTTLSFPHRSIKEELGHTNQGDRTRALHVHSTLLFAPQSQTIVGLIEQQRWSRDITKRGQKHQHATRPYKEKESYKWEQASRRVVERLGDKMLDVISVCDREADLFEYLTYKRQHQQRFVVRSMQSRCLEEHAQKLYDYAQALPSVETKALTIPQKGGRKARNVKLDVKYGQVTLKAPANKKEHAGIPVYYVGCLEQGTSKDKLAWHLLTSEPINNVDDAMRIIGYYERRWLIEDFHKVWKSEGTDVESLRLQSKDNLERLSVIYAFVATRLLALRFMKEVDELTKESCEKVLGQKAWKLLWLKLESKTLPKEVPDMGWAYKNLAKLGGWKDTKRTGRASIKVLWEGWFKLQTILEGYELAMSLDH

[6] = system: T6, chimeric transposase SEQ 12 (Artificial Sequence); assay: activity assay; details: bead-bound complex fragments DNA, Mn2+, 45 C, protein in a lysate after overexpression
T6 sequence: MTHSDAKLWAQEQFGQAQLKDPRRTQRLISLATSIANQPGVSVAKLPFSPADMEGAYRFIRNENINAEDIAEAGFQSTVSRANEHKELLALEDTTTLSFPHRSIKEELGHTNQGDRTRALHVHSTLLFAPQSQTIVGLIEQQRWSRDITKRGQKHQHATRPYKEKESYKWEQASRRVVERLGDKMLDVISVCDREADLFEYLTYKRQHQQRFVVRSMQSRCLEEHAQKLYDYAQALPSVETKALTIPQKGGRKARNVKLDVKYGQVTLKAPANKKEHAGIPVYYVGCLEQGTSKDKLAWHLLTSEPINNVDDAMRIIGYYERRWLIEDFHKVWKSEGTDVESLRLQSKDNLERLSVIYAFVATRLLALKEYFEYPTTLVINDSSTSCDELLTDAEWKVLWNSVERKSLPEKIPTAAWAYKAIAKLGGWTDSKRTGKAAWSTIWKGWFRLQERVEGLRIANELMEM

[7] = system: T7, Vibhar/P. profundum C-terminal domain chimeric transposase (5L) (Artificial Sequence); assay: activity assay; details: bead-bound complex fragments DNA, less GC bias, Mn2+, 45 C, protein in a lysate after overexpression
T7 sequence: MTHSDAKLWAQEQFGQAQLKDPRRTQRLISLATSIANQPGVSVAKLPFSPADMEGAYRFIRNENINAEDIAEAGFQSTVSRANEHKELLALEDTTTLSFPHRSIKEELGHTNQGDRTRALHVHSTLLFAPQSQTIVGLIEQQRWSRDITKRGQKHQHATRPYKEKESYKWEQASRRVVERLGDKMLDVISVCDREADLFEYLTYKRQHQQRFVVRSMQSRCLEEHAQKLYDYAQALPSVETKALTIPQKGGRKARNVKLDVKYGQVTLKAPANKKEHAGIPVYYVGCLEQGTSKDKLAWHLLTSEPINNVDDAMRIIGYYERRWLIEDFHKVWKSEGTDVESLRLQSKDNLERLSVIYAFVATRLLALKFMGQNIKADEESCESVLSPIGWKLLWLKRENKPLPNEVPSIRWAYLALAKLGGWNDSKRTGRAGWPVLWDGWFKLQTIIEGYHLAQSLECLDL

[8] = system: T8, chimeric transposase SEQ 13 (Artificial Sequence); assay: activity assay; details: bead-bound complex fragments DNA, Mn2+, 45 C, protein in a lysate after overexpression
T8 sequence: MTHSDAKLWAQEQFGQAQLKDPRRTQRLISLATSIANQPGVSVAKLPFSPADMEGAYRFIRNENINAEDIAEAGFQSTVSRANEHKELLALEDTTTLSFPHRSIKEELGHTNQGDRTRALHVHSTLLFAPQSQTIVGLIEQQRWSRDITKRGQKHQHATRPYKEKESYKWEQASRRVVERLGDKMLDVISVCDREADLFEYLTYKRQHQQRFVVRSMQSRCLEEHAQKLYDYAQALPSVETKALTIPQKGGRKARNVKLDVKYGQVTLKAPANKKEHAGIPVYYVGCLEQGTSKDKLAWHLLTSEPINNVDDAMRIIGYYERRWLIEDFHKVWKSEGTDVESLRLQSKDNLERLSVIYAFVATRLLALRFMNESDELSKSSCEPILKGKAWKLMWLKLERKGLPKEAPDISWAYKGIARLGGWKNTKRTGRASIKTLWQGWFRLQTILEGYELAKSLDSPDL

[9] = system: T9, chimeric transposase SEQ 14 (Artificial Sequence); assay: activity assay; details: bead-bound complex fragments DNA, Mn2+, 45 C, protein in a lysate after overexpression
T9 sequence: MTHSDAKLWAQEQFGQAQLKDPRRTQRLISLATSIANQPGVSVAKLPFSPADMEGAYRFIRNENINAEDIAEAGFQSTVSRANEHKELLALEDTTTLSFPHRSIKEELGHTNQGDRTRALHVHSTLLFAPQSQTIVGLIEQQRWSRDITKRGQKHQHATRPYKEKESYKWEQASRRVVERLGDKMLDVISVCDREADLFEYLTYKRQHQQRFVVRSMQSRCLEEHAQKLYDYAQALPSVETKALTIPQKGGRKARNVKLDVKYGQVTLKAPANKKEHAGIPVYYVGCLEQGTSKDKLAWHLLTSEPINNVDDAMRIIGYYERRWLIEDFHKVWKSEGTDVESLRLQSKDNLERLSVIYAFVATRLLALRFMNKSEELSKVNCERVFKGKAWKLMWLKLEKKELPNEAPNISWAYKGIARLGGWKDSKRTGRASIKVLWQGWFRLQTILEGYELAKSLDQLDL

[10] = system: T5, Vibhar transposase (V6) (Vibrio harveyi); assay: pull-down; details: complex formed in lysate with both adapters, streptavidin beads; fragments lambda DNA, Mn2+, 45 C; protein in a lysate after overexpression; label: biotin (3bio)

Sequence	activity on this sequence [1]	activity on this sequence [2]	activity on this sequence [3]	activity on this sequence [4]	activity on this sequence [5]	activity on this sequence [6]	activity on this sequence [7]	activity on this sequence [8]	activity on this sequence [9]	activity on this sequence ([1]; label: biotin (3bio))	activity on this sequence ([2]; label: biotin (3bio))	activity on this sequence ([3]; label: biotin (3bio))	activity on this sequence ([4]; label: biotin (3bio))	activity on this sequence ([6]; label: biotin (3bio))	activity on this sequence ([7]; label: biotin (3bio))	activity on this sequence ([8]; label: biotin (3bio))	activity on this sequence ([9]; label: biotin (3bio))	binding result [10]
GGAGCTGTGCGTAGATGTGATCAAGAGACAG / CTGTCTCTTGATCACATCT [adapter 8i1/8i0]	active	active	active	active	active	active	active	active	active									
TTTTTTTTTTTTGCTGACGTCGAGACTTGTGATCAAGAGACAG / CTGTCTCTTGATCACAAGT [adapter 3bio/3i0]										active	active	active	active	active	active	active	active	binds

Source: patent US20140093916
